The text below walks through data of US20250114285A1, “ARRAY OF HAIR DYE PRODUCTS” (The Procter & Gamble Company, priority 2023, published 2025).

The data set in a line: Composition Formulation: color accuracy, dye distribution, oiliness (Example 12). As to conditions: balance Moremo, 2 min activation. Further details: key: Desirable results are indicated as “good.”; Undesirable results are indicated as “bad.”.
Setting [1] is: Dye 0.2 wt %, isopropyl myristate 9.8 wt %.
Where [2] appears, read: Dye 0.4 wt %, isopropyl myristate 19.6 wt %.
[3] abbreviates: Dye 0.61 wt %, isopropyl myristate 30.1 wt %.
[4] abbreviates: Dye 0.7 wt %, isopropyl myristate 34.3 wt %.
Setting [5] is: Dye 0.81 wt %, isopropyl myristate 39.8 wt %.
[6] abbreviates: Dye 1.0 wt %, isopropyl myristate 49.0 wt %.
[7] abbreviates: Dye 1.2 wt %, isopropyl myristate 58.8 wt %.
The mark [8] stands for this setting: Dye 1.4 wt %, isopropyl myristate 68.6 wt %.
The mark [9] stands for this setting: Dye 1.47 wt %, isopropyl myristate 29.2 wt %.

Turning to `Cc1sc(-c2ccccc2)nc1C1=C(c2nc(-c3ccccc3)sc2C)C(F)(F)C(F)(F)C1(F)F` [DAE-0012, 4,4′-(perfluorocyclopent-1-ene-1,2-diyl)bis(5-methyl-2-phenylthiazole)], the “Color Accuracy” value reads like this: under setting [1], “bad”; under setting [2], “bad”; under setting [3], “bad”; under setting [4], “good”; under setting [5], “good”; under setting [6], “good”. Further, the “Color Accuracy” value by setting is: under setting [7], “good”; under setting [8], “good”. Also, the Dye distribution result is recorded as “bad” under setting [1]; “bad” under setting [2]; “good” under setting [3]; “good” under setting [4]; “good” under setting [5]; “good” under setting [6]. Further, the Dye distribution entry under setting [7] is recorded as “good” and the Dye distribution result under setting [8] is “good”. Besides, the Oiliness result was “good” under setting [1]; “good” under setting [2]; “good” under setting [3]; “good” under setting [4]; “bad” under setting [5]; “bad” under setting [6]. For the same molecule, the Oiliness entry runs as follows: under setting [7], “bad”; under setting [8], “bad”.
Take `Cc1sc(-c2ccccc2)cc1C1=C(c2cc(-c3ccccc3)sc2C)C(F)(F)C(F)(F)C1(F)F` [DAE-0001, 3,3′-(perfluorocyclopent-1-ene-1,2-diyl)bis(2-methyl-5-phenylthiophene)]: the “Color Accuracy” value by setting is: under setting [1], “bad”; under setting [2], “bad”; under setting [3], “bad”; under setting [4], “good”; under setting [5], “good”; under setting [6], “good”. For the same molecule, the “Color Accuracy” value reads like this: under setting [7], “good”; under setting [9], “good”. Further, the Dye distribution entry was “bad” under setting [1]; “bad” under setting [2]; “good” under setting [3]; “good” under setting [4]; “good” under setting [5]; “good” under setting [6]. For the same molecule, the Dye distribution result under setting [7] is listed as “good” and the Dye distribution result under setting [9] was “good”. Moreover, the Oiliness entry was “good” under setting [1]; “good” under setting [2]; “good” under setting [3]; “bad” under setting [4]; “bad” under setting [5]; “bad” under setting [6]. In addition, the Oiliness result under setting [7] is “bad” and the Oiliness entry under setting [9] is “good”.
